Results are given in words; binding and its absence hold for the method and conditions named. Some results given as binding are weak or reduced against the parent protein; the word gives no strength. Blank lines part the entries; values can stand above or below the binder they belong to.
Assays:
[1] = biological target: human complement C5 (human) (UniProt P01031); test: A4F-MALLS, mixed with H4H12166P and hC5 at 0.5:0.5:1 µM
[2] = biological target: human complement C5 (human) (UniProt P01031); test: A4F-MALLS fractogram; H4H12166P, H4H12171P and hC5 mixed at 0.5:0.5:1 µM
[3] = biological target: human complement C5 (human) (UniProt P01031); test: A4F-MALLS fractogram; H4H12166P, H4H12175P and hC5 mixed at 0.5:0.5:1 µM

Protein sequences, listed by entry. Tags and fused reporters are not part of them. Lines headed by an entry give the natural chain unless they say otherwise; changes in a name come on top.
UniProt P01031: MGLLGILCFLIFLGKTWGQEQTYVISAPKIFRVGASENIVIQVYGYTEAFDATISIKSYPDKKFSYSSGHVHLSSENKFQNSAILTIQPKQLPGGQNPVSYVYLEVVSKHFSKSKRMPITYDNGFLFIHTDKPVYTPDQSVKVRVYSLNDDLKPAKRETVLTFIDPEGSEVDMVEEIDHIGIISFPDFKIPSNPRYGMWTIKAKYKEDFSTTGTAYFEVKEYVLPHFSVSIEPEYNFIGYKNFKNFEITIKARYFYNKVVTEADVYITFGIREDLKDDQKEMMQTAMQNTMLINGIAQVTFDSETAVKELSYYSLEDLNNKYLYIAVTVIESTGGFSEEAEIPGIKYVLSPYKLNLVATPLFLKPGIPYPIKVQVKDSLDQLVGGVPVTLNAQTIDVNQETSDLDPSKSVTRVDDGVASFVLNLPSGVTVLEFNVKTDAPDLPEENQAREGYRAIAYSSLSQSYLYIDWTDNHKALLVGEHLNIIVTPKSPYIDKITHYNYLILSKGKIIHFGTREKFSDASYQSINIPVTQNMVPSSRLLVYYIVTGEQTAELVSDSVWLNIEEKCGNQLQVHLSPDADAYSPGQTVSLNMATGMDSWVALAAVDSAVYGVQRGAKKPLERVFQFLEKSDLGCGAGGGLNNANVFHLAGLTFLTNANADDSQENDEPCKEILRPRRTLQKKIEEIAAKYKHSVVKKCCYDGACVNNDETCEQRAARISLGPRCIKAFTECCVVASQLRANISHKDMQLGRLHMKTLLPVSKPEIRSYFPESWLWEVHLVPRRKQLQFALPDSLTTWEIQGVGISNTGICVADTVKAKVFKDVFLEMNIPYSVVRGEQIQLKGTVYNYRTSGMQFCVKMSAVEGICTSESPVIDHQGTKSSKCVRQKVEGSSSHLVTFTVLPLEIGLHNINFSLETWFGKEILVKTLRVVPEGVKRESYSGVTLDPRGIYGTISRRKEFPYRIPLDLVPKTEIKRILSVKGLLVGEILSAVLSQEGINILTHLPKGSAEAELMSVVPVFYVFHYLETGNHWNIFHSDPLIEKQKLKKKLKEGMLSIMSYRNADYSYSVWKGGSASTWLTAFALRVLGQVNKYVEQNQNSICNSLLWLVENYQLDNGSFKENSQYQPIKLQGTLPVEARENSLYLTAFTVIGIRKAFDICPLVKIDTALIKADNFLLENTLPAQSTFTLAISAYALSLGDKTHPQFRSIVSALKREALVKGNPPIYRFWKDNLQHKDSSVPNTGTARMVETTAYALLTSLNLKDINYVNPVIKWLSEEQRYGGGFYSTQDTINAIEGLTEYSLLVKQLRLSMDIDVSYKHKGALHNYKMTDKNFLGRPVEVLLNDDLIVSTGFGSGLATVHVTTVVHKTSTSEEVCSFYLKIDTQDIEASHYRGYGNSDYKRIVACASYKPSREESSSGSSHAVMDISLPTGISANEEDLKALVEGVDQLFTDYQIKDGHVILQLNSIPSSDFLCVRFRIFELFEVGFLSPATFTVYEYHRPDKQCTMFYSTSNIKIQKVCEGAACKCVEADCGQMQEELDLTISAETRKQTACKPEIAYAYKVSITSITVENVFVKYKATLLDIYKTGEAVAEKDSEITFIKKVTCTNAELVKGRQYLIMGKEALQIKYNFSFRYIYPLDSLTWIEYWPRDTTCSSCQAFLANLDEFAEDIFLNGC

binding [1]: binds
B1: H4H12161P (antibody, V domains shown)
VH: EVQLVESGGDLVQPGGSLRLSCAASGFTFSDHYMDWVRQAPGKGLDWIGRIRNKANAYNTEYAASVRGRFTISRDDSQNLLYLQMNSLKTDDTAVYYCVRVWNYAYFAMDVWGQGTTVTVSS
VL: DIQMTQSPSSLSASVGDRVTITCRSSQNIGIFLNWYQQKPGEAPNLLISAASSLHSGVPSRFSGSGSGTDFTLTIGSLQPEDFATYYCQQTYNTIFTFGPGTKVDIK

binding [1]: binds | binding [2]: binds
B2: H4H12171P (antibody, V domains shown)
VH: EVQLVESGGGVVRPGGSLRLSCAASGFTFDEYGMTWVRQVPGKGLEWVSGITWNGGFTDYTDSVKGRFTSSRDNAKNSLYLQMNSLRAEDTALYYCARDGYSSSWGAYDIWGQGTMVTVSS
VL: DIQMTQSPSSLSASVGDRVTITCRASQSISTYLNWYQQKPGKAPKLLIYAASSLQSGVPLRFSGSGSGTDFTLTISSLQPEDFASYFCQQSYSTPYTFGQGTKLEIK

binding [1]: binds | binding [3]: binds
B3: H4H12175P (antibody, V domains shown)
VH: EVQLVESGGGVVQPGGSLRLSCAASGFTFNDYAMHWVRQAPGKGLEWVSLISGDGGNTYYADSVKGRLTISRDNSKNSLYLQMNSLRTEDTALYYCAKDKGWNFGYFDLWGRGTLVTVSS
VL: DIQMTQSPSSLSTSVGDRVTITCRASQNIDTYLNWYQQKPGKAPKLLIYDASSLQSGVPSRFSGSGSGTDFTLTITSLQPEDFATYYCQQNDNILHPLTFGGGTKVEIK
